Measured data: PubChem BioAssay AID1259281 (Sanger Institute, 2017)
The deposit covers 794 reagents; shown is an unselected part. 22 of them (2.8%) were called active. 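Calls rest on knock-down alone only; drug synergy scores play no part in them.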 Further read-outs or replicates are left out here. The record does not give: the amount of reagent, the time to read-out.

Test: 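Find knock-downs that kill colorectal cancer cells alone or strengthen targeted drugs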 (primary screen)
System: human COLO678 colorectal cancer cell line
Knock-down reagent: siRNA pool against human genes
Treatment: anchor drugs at fixed doses: BYL719 1 µM, cetuximab 5 µg/ml or trametinib 10 nM; DMSO vehicle for the siRNA-alone arm
Read-out: 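Cell viability compared with non-targeting pool wells, averaged over replicates; knock-down-alone effect also as robust z-score; synergy scores set knock-down plus drug against expected joint effect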
Direction: robust z-score, siRNA alone: higher = more viable cells; strongly negative means essential
Active means: 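Essential (knock-down alone) when the siRNA-alone robust z-score is below -3; otherwise no change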
Calls: active = essential (knock-down alone); inactive = no change

gene knocked down | robust z-score, siRNA alone | Call
BRSK2 (BR serine/threonine kinase 2) | 0.473 | inactive
PTPN11 (protein tyrosine phosphatase non-receptor type 11) | 0.473 | inactive
AXIN2 (axin 2) | 0.137 | inactive
STKLD1 (serine/threonine kinase like domain containing 1) | -1.12 | inactive
GSK3A (glycogen synthase kinase 3 alpha) | 0.473 | inactive
PTPRU (protein tyrosine phosphatase receptor type U) | 0.473 | inactive
JAK3 (Janus kinase 3) | 0.473 | inactive
DMPK (DM1 protein kinase) | 0.473 | inactive
IRAK1 (interleukin 1 receptor associated kinase 1) | 0.473 | inactive
PCK2 (phosphoenolpyruvate carboxykinase 2, mitochondrial) | 0.473 | inactive
EPHA10 (EPH receptor A10) | -0.363 | inactive
COMMD3 (COMM domain containing 3) | 0.473 | inactive
FGR (FGR proto-oncogene, Src family tyrosine kinase) | 0.473 | inactive
PRKAR1B (protein kinase cAMP-dependent type I regulatory subunit beta) | 0.0581 | inactive
RPS6KA3 (ribosomal protein S6 kinase A3) | 0.473 | inactive
NPR2 (natriuretic peptide receptor 2) | 0.473 | inactive
TWF1 (twinfilin actin binding protein 1) | 0.473 | inactive
PRKCB (protein kinase C beta) | 0.296 | inactive

4 entries from above, arranged by “robust z-score, siRNA alone”, high to low:
gene knocked down | robust z-score, siRNA alone | Call
COMMD3 (COMM domain containing 3) | 0.473 | inactive
FGR (FGR proto-oncogene, Src family tyrosine kinase) | 0.473 | inactive
PRKAR1B (protein kinase cAMP-dependent type I regulatory subunit beta) | 0.0581 | inactive
EPHA10 (EPH receptor A10) | -0.363 | inactive

Additional records follow:
gene knocked down | robust z-score, siRNA alone | Call
APC (APC regulator of Wnt signaling pathway) | 0.473 | inactive
ZAP70 (zeta chain of T cell receptor associated protein kinase 70) | -0.967 | inactive
AURKA (aurora kinase A) | -0.867 | inactive
PRKY (protein kinase Y-linked (pseudogene)) | 0.473 | inactive
MAP3K2 (mitogen-activated protein kinase kinase kinase 2) | 0.473 | inactive
FN1 (fibronectin 1) | 0.473 | inactive
RIOK1 (RIO kinase 1) | 0.473 | inactive
MAPKAPK5 (MAPK activated protein kinase 5) | 0.473 | inactive
EPHB6 (EPH receptor B6) | 0.473 | inactive
CAMK2B (calcium/calmodulin dependent protein kinase II beta) | 0.473 | inactive
CAD | 0.473 | inactive
PSKH2 (protein serine kinase H2) | 0.473 | inactive
NUAK1 (NUAK family kinase 1) | 0.473 | inactive
KIT (KIT proto-oncogene, receptor tyrosine kinase) | 0.473 | inactive
PI4K2B (phosphatidylinositol 4-kinase type 2 beta) | 0.473 | inactive
IKBKE (inhibitor of nuclear factor kappa B kinase subunit epsilon) | 0.0683 | inactive
